Record: PubChem BioAssay AID602196 (INSERM, 2012)
Aim: 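Modifiers of cisplatin sensitivity in A549 cells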. Cells: human A549 lung cancer cells. Reagent: siRNA pair against human genes. Duration: 48 h transfection before cisplatin; time from cisplatin to read-out not stated. Conditions: cisplatin at a dose killing half of control-siRNA cells; exact dose and duration not given. Measured: 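Cisplatin cell death as a shift from the 50% death seen with control siRNA; siRNAs toxic or growth-blocking alone scored 0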. Scale: two-siRNA summed score (-2 to +2): higher = both siRNAs protect from cisplatin killing; -2 means both sensitise; mean protection from cisplatin (shift in death) and protection from cisplatin (shift in death), siRNA C and protection from cisplatin (shift in death), siRNA D: higher = protection from cisplatin killing. Call rule: 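siRNAs harmful alone (LDH or WST-1) get 0; others get +1 for less and -1 for more cisplatin killing; genes are active when the two siRNAs give the same sign, summing to ±2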. Meaning of the calls: active = both siRNAs shift cisplatin killing the same way; inactive = no consistent shift, or siRNA harmful alone.
The whole screen tested about 23,000 reagents; below is a random part of them. In the full data, 455 (2%) are marked active. 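Active includes both protection and sensitisation; some change values fall well beyond the stated -50 to +50 range.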 The numbers tell different reagents against one gene apart. The record does not give: the amount of reagent.

| gene | reagent no. | two-siRNA summed score (-2 to +2) | mean protection from cisplatin (shift in death) (%) | protection from cisplatin (shift in death), siRNA C (%) | protection from cisplatin (shift in death), siRNA D (%) | Call |
| --- | --- | --- | --- | --- | --- | --- |
| LOC402530 | 1 | 0 | 10.6 | 17.7 | 3.6 | inactive |
| ZNF20 | 1 | 1 | 12.9 | 12 | 13.7 | inactive |
| CA2 | 1 | 0 | 4.1 | -3 | 11.3 | inactive |
| LIPJ | 1 | -1 | -11.5 | 0.6 | -23.6 | inactive |
| LOC158730 | 1 | 0 | 8.1 | 4.9 | 11.3 | inactive |
| AMER3 | 1 | 1 | 12.4 | 5.7 | 19.1 | inactive |
| FAM219A | 1 | 1 | 7.1 | 15.5 | -1.2 | inactive |
| HERC3 | 1 | 0 | 1.1 | 5.3 | -3 | inactive |
| ZFTRAF1 | 1 | 0 | 5.8 | 11.8 | -0.2 | inactive |
| UBQLN2 | 1 | 0 | -3.1 | -10.6 | 4.4 | inactive |
| RPGRIP1 | 1 | -1 | -22.5 | -38.4 | -6.7 | inactive |
| S-I3 | 1 | 0 | 8.1 | 8.1 | 8.1 | inactive |
| MRPS33 | 1 | 1 | 5.7 | -1.4 | 12.9 | inactive |
| LYPLA2P2 | 1 | 0 | 5.4 | 4.1 | 6.7 | inactive |
| SLC26A7 | 1 | 0 | 4.1 | 3.6 | 4.6 | inactive |
| GAB3 | 1 | 0 | 6.4 | 9.3 | 3.5 | inactive |
| HIC1 | 1 | 1 | 0.3 | -10.9 | 11.6 | inactive |
| LOC441481 | 1 | 0 | 10.9 | -2.7 | 24.6 | inactive |
| LOC442127 | 1 | 0 | 0.9 | -0.8 | 2.5 | inactive |
| TBX21 | 1 | 0 | -8.6 | -10.5 | -6.8 | inactive |
| LOC389139 | 1 | 0 | -0.9 | -3.9 | 2 | inactive |
| THBD | 1 | 0 | -1.4 | -6.9 | 4.1 | inactive |
| LOC400452 | 1 | 0 | 13 | 22.3 | 3.6 | inactive |
| TREML1 | 1 | 1 | 13.1 | 9.1 | 17.2 | inactive |
| SPSB1 | 1 | 1 | 15.3 | 1.8 | 28.8 | inactive |
| HLA-DRA | 1 | 0 | 1.1 | 3.2 | -0.9 | inactive |
| FLJ41170 (retired record) | 1 | 0 | 14.7 | 18.5 | 10.8 | inactive |
| GOLGA6B | 1 | 0 | 11.1 | 15.4 | 6.9 | inactive |
| RFLNA | 1 | 0 | 7.3 | 11.6 | 2.9 | inactive |
| LOC400638 | 1 | 0 | 5.5 | 3.6 | 7.3 | inactive |
| RPS6KA5 | 1 | 0 | -1.7 | 0.6 | -3.9 | inactive |
| GOT2 | 1 | -1 | -17.9 | -19.1 | -16.6 | inactive |
| RAB5A | 1 | 0 | 0.4 | 4.1 | -3.3 | inactive |
| OSBPL6 | 1 | 0 | -0.9 | -2.8 | 1 | inactive |
| LOC389665 | 1 | 0 | -4.9 | -10.4 | 0.6 | inactive |
| ZC3H6 | 1 | 0 | 8.4 | 10.8 | 6 | inactive |
| CIAO2A | 1 | 0 | 5.8 | 4.1 | 7.4 | inactive |
| CIAO2A | 2 | 0 | 6.2 | 5.5 | 7 | inactive |
| PPP1R16B | 1 | -1 | -7.4 | 15.7 | -30.4 | inactive |

An excerpt from above, showing only “two-siRNA summed score (-2 to +2)”.
FAM219A = 1
HERC3 = 0
ZFTRAF1 = 0
UBQLN2 = 0
RPGRIP1 = -1
